Results reported in patent US20050214802A1 (Genentech, published 2005).
Results are given in words; binding and its absence hold for the method and conditions named. Some entries that bind do so weakly or less than the wild type.

Amino acid sequences for entries named in this document (tags omitted). Residues count along the entry.
UniProt P98170, residues 252-348: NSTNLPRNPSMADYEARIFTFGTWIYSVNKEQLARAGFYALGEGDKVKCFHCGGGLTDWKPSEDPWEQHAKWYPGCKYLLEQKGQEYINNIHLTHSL

How the values were obtained:
Assay in all cases: fluorescence polarization, FIG. 8
[1] = target: T1, ML-IAP-BIR (amino acids 63-179 of ML-IAP, bacterially expressed from pET15b) (human) (UniProt Q96CA5)
T1 sequence (looked up): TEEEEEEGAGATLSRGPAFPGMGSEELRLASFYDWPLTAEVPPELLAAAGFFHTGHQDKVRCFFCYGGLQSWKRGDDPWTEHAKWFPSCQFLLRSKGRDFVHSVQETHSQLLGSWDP

[2] = target: T2, MLBIR-Q (C-terminally truncated variant of ML-IAP-BIR) (human) (UniProt Q96CA5)
T2 sequence (looked up): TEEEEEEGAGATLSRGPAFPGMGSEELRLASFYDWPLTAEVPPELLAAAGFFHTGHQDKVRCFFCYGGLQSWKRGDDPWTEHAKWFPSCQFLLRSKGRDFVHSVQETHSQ

[3] = target: MLXBIR3 (ML-IAP-BIR with amino acids 160-179 replaced by amino acids 336-348 of XIAP-BIR3) (human) (UniProt Q96CA5+P98170)
[4] = target: T3, MLXBIR3SG (ML-IAP chimera: ML-IAP-BIR framework with XIAP-BIR3 residues 336-348 in place of 160-179 and S150G) (human (ML-IAP / XIAP chimera))
T3 sequence: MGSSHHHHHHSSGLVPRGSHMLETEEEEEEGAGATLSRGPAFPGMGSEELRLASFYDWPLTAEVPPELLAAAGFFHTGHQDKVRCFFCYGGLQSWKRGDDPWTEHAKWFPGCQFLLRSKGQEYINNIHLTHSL

[5] = target: XIAP-BIR3 (third BIR of XIAP, residues 252-348) (human) (UniProt P98170)

Measured: binding

AVPFAK (5-carboxyfluorescein on Lys 6: AVPFAK(5-FAM)K) [5-carboxyfluorescein-conjugated AVPFAK(5-FAM)K (Hid-FAM)]
binds: all assays above
